Primary screen of a compound library

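Whole-cell assay for inhibitors of Mycobacterium tuberculosis growth, labelled Cornell in the record; the read-out is not stated. The concentration is filed as 10 mM, unlikely as a test dose, so the dose is not known. Higher means stronger inhibition (inferred from two other growth screens of the library). About 53,000 compounds were tested under these conditions; 1.7% (about 900) showed 50% or more at least once.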

Values are the deposited “Percent Effect”, in %. The record does not define 0% and 100%; most values in the screen are far below 50% and negative numbers occur (in some assays of this library far below -100). Compounds were drawn at random from those tested, without regard to their results.

| compound | effect |
|---|---|
| `Cc1cccc(CN2Cc3[nH]nc(COCc4nccs4)c3C2)n1.O=C(O)C(F)(F)F` | 17.2% |
| `O=C(Nc1ccc(N2CCCCC2)cn1)C1CCCN1C(=O)C1CC1` (stereo not shown) | -6.669% |
| `Cc1cc(=O)[nH]c(=O)n1-c1ccccc1Br` | -7.231% |
| `Fc1ccc(NCc2ncc[nH]2)cc1Br` | 55.27% |
| `Cc1cc(C(=O)Nc2ccc(OCC3CCOCC3)cc2)[nH]n1` | -17.2% |
| `COCCC(=O)N1CCCC1c1nc(O)cc(C(C)C)n1` (stereo not shown) | -19.8% |
| `Cc1nccn1CCCNc1ncccc1C#N` | -20.39% |
| `[H][C@@]12CS(=O)(=O)C[C@]1([H])N(Cc1nc3ccccc3[nH]1)CCN2CC(C)C` | -8.66% |
| `CC(C)n1nc(CN(C)C)c2c1CN(CC1CC1)CC2.O=C(O)C(F)(F)F.O=C(O)C(F)(F)F` | 13.28% |
| `CC(C)Cc1cc(C(=O)NC(C)(C)CN2CCCCCC2)on1` | 13.04% |
| `COCC(=O)N1CCC(=O)N(C2CCCC2)Cc2cc(F)ccc21` | 4.276% |
| `Cc1ncccc1C(=O)Nc1cccc(C[S+](C)[O-])c1C` (stereo not shown) | 11.87% |
| `O=C(O)C(F)(F)F.[H][C@@]12CN(Cc3ccc4c(c3)OCO4)C[C@@H](C(=O)NC3CC3)[C@]1([H])CCO2` | 14.69% |
| `Cc1cc(C(=O)Nc2ccn(CCCN3CCCC3)n2)c(C)o1` | 20.52% |
| `[H][C@]12CN(Cc3cccc(C#N)c3)CC[C@@]1(O)CCN(S(=O)(=O)N(C)C)C2` | -15.72% |
| `Cc1cc(CNC(=O)Nc2ccc(C(=O)NC3CC3)cc2)no1` | -32.12% |
| `Cc1csc(CNC(=O)N(C)Cc2ccc3c(c2)OCO3)n1` | -26.87% |
| `CC1CCN(c2cc(NC(=O)C3CC3)ncn2)CC1` | 16.59% |
| `O=C1CCNC(=O)N1CC(=O)N1CCC1c1ccc(F)cc1` (stereo not shown) | 31.7% |
| `COc1ccc(CNC(=O)Cn2ccc3sccc3c2=O)cc1` | -20.11% |
| `CCN1CCN(c2ccc(NC(=O)CC(C)C)c(C)c2)CC1` | -22.64% |
| `COCCn1ccc(=O)c(OCC(=O)Nc2cccc(Cl)c2)c1C` | 11.14% |
| `Cc1ccccc1S(=O)(=O)CCOC(C)C` | 0.3089% |
| `Cc1nc(C2CCCN(C(=O)c3ccc(OCC4CC4)nc3)C2)no1` (stereo not shown) | 16.34% |
| `CN(C)CC(=O)N1CCOCC(Cc2ccccn2)C1` (stereo not shown) | -1.9% |
| `COc1ccc(Cl)cc1NC(=O)CCNc1ccc(C#N)cn1` | -28.65% |
| `CN1CCN(C)c2cc(NC(=O)c3cc[nH]n3)ccc2C1` | 15.45% |
| `COCCO[C@H]1CCN(C(=O)c2ccoc2C)[C@H]1Cc1cnn(C)c1` | 9.265% |
| `Cc1sc(Br)cc1S(=O)(=O)NCCN.Cl` | 14.52% |
| `CC(C)CCN1CC2(CCN(C(=O)C3(C)CCCCO3)CC2)OC1=O` (stereo not shown) | 5.659% |
| `COCCN(CCc1ccccc1)Cc1nc2c(cnn2C)c(=O)[nH]1` | 10.56% |
| `O=C(O)C(F)(F)F.O=C(c1ccc2ccccc2n1)N1CCC2(CCN2c2ncccn2)C1` (stereo not shown) | -6.141% |
| `[H][C@@]12C[C@@H](OCc3cccnc3)CN1CCN(C(=O)c1cnc(C)cn1)C2` | -31.84% |
| `CNS(=O)(=O)CCCN(C)Cc1cc(C)ccc1OC` | 4.64% |
| `CC(C)(C)c1nc(CN2CCCC2Cn2cccn2)no1` (stereo not shown) | 3.541% |
| `CCc1ncc(C(=O)N2CCN(c3nc(C)cc(OC)n3)CC2)s1` | 12.3% |
| `COc1ccc(C(=O)C2CCCN(c3cc(N)ncn3)C2)c(C)c1` (stereo not shown) | 9.598% |
| `Cc1nc(C)n(CC2CN(CCOc3cccc(F)c3)CCO2)n1` (stereo not shown) | 0.5264% |
| `CS(=O)(=O)NCc1cc(=O)n2c(n1)CN(Cc1ccco1)CCC2.O=C(O)C(F)(F)F` | -19.01% |
| `Cc1noc(-c2c[nH]nc2C2CCCN2C(=O)c2ccccc2)c1C` (stereo not shown) | -2.6% |
| `C[C@@H]1CN(CCC(=O)NCc2ccccc2Cl)C[C@@]1(O)C1CC1` | 3.153% |
| `CCn1ncnc1C(C)NC(=O)C1CCN(C(C)C)CC1` (stereo not shown) | 12.13% |
| `O=S(=O)(c1cccs1)N1CCCC(c2nccs2)C1` (stereo not shown) | 5.318% |
| `CN(Cc1csc(-c2cccs2)n1)C(=O)CCn1ccccc1=O` | 21.49% |
| `Cc1noc(C)c1CNc1cccc(C(=O)N2CCCC(O)C2)c1` (stereo not shown) | -8.206% |
| `Cn1cc(CNc2ccc(CCN3CCC(C(N)=O)CC3)cc2)cn1` | 14.66% |
| `CCC1CNCc2cc3c(OC)ccc(OC)c3nc2O1` (stereo not shown) | 6.248% |
| `Cc1cc(C2CCCN2C(=O)CN(C)Cc2ccccc2)no1` (stereo not shown) | 21.64% |
| `O=C(O)C1(Oc2ccc3c(c2)OCO3)CCN(C2CCOCC2)CC1` | 9.86% |
| `COCC1CN(Cc2cccnc2)Cc2nnn(CC3CC3)c21.O=C(O)C(F)(F)F.O=C(O)C(F)(F)F` (stereo not shown) | 31.83% |
| `CN1CCCC1CCNC(=O)Nc1ccccc1` (stereo not shown) | 11.56% |
| `CC(=O)N1CCC(C)(c2cc(C(=O)NCC(C)(C)C)nc(C)n2)CC1` | -26.07% |
| `CCS(=O)(=O)N1CCC2(CN(c3cccc(C)n3)C2)C1.O=C(O)C(F)(F)F` | 9.308% |
| `Cc1cccc(CN2CCc3c(nc(N4CCCCC4C)[nH]c3=O)C2)n1` (stereo not shown) | 11.25% |
| `Cc1nc(-c2cn(CCN)nn2)n(-c2ccc3c(c2)CCC3)n1` | 23.96% |
| `Cc1cc(CN2CCC(C3CCN(CC(C)C)CC3)C2)[nH]n1` (stereo not shown) | -5.882% |
| `COc1c(CNCc2ccc3c(c2)OCO3)c(C(C)C)nn1C` | -13.81% |
| `CC(C)N1CCC(c2nc3ccc(-c4ccnn4C)cn3n2)CC1.O=C(O)C(F)(F)F` | -20.04% |
| `CSCC(=O)N1CCCN(c2ccncc2C)CC1` | 1.23% |
| `O=C(O)C(F)(F)F.O=C(O)C(F)(F)F.[H][C@@]12CCC(=O)N(Cc3ccncc3)[C@]1([H])CCN2Cc1ccc(C)s1` | -56.53% |
| `COc1cccc(OCC(=O)N2CCCSCC2CN2CCOCC2)c1` (stereo not shown) | -32.37% |
| `CCN1CCN(CC(=O)N2CCOC(Cc3ccc(OC)cc3)C2)CC1` (stereo not shown) | 5.616% |
| `c1cnc(-c2nc(CN3CCOC(Cn4cncn4)C3)cs2)nc1` (stereo not shown) | -14.21% |
| `[H][C@@]12CCN(Cc3ccncc3)[C@]1([H])CC[C@@H](C(=O)N1CCCCO1)O2` | -0.5926% |
| `Cc1c(CS(C)(=O)=O)cccc1NC(=O)CC1CCCC1` | 22.49% |
| `O=C(c1ccc(C2CCCN2C(=O)c2ccoc2)s1)N1CCOCC1` (stereo not shown) | 28.23% |
| `Cc1ncccc1CNCC1CCc2nnc(C(C)C)n2C1` (stereo not shown) | 17.11% |
| `Cc1noc(C)c1C1CCCN1C(=O)c1cn2ccsc2n1` (stereo not shown) | -6.503% |
| `CC(=O)N1N=C(COc2ccc(C)cc2)OC1c1ccc(N(C)C)cc1` (stereo not shown) | 19.27% |
| `Cc1nc(CSc2nc(=O)ccn2C(C)C)cs1` | 6.183% |
| `CN(Cc1nc2ccccc2s1)C1CCCN(c2cccnn2)C1` (stereo not shown) | 6.102% |
| `O=C1N(Cc2cccc(F)c2)CCC12CCCN(c1ncc(F)cn1)C2` (stereo not shown) | 17.58% |
| `CSCCC(O)C(=O)N1CCCN(Cc2cccnc2)CC1` (stereo not shown) | 7.282% |
| `CN(C)c1ncnc2c1CCN(C(=O)CN1CCCCC1)C2` | 24.12% |
| `CC1(C)CC1(C(=O)N1CC(c2cccnc2)C1)c1ccc(F)cc1` (stereo not shown) | -13.61% |
| `COc1ccc(-c2ccc(C(=O)N3CCC[C@@H]3CO)o2)cc1` | 1.802% |
| `Clc1cccc(N2CCC(NCc3cc[nH]n3)C2)c1` (stereo not shown) | 20.64% |
| `Cn1nccc1C(=O)N1CC[C@]2(C[C@H](OCc3ccccn3)CO2)C1.O=C(O)C(F)(F)F` | 1.861% |
| `CCN(CC)S(=O)(=O)N1CCCC1CC(=O)c1cccs1` (stereo not shown) | 1.3% |
| `Cc1ccc(S(=O)(=O)NCCc2nnc[nH]2)c2cccnc12` | -43.77% |
| `O=C([C@H]1CCCO1)N1CCc2ncnc(NC3CC3)c2CC1` | 26.48% |
| `O=C(O)c1ccccc1-c1cnc(Cn2c(=O)cc[nH]c2=O)s1` | 12.54% |
| `O=C(O)C(F)(F)F.[H][C@]12CC[C@@]3(N=C(CC)N(C)C3=O)[C@@]1([H])CN(CC1CC1)C2` | 13.52% |
| `CN1CCN(c2ncnc3c2CCN(Cc2nccn2C)CC3)CC1` | 5.629% |
| `Cn1cnn(Cc2c(F)cccc2Br)c1=O` | 29.81% |
| `CCCS(=O)(=O)N1CCN(c2cc(-n3nc(C)cc3C)nc(C)n2)CC1` | 1.012% |

The last 4 entries again:

O=C(O)C(F)(F)F.[H][C@]12CC[C@@]3(N=C(CC)N(C)C3=O)[C@@]1([H])CN(CC1CC1)C2 gave 13.52%.
CN1CCN(c2ncnc3c2CCN(Cc2nccn2C)CC3)CC1 gave 5.629%.
Cn1cnn(Cc2c(F)cccc2Br)c1=O gave 29.81%.
CCCS(=O)(=O)N1CCN(c2cc(-n3nc(C)cc3C)nc(C)n2)CC1 gave 1.012%.

Measurements from “University of Dundee, Small-Polar-MMV Screening Library” (2021), ChEMBL document CHEMBL3988442.